The text below walks through data of patent publication US20250387458A1, “COACTIVE COMBINATIONS OF ANTIMICROBIALS WITH DISPERSINB” (KANE BIOTECH INC., priority 2020, published 2025).

Molecules are shown by their SMILES.

Assay [1] relates to S. epidermidis biofilm. As to the kind of experiment: Compatibility between antimicrobials or antibiotics and DspB, biofilm dispersal assay in buffer (Method 3). Type of assay: cell-based, Staphylococcus epidermidis. The procedure:
Method 3: Method to Test Compatibility Between Antimicrobials or Antibiotics and DspB Using Biofilm Dispersal Assay
S. epidermidis biofilm was grown in 96-well plate and washed three times using sterile water to remove planktonic cells. Antimicrobials or antibiotics and DspB formulations were prepared in 50 mM phosphate or citrate buffer and stored at 37° C. for 2 h and used for treating biofilm at 0 and 2 h. Biofilm was treated using antimicrobials or antibiotics and DspB formulations for 10 min. After treatments, solutions were removed and washed 3 times to remove dispersed biofilm. Remaining biofilms in 96-well plates were stained using Crystal violet, unbound crystal violet was removed by washing the wells with sterile water, the biofilm bound crystal violet was eluted using 33% acetic acid, and the absorbance at 620 nm was taken using a microwell plate reader. Percent biofilm removal was calculated. Data was analyzed using ANOVA and Tukey's test.

Assay [2] concerns S. epidermidis biofilm. In words: Biofilm dispersal by DspB gel formulations (Method 5). Type of assay: cell-based, Staphylococcus epidermidis. On the procedure: Method 5: Method to Test Biofilm Dispersal by DspB Gel Formulations
S. epidermidis biofilm was grown in 96-well plate and washed three times to remove planktonic cells. Then biofilm was treated using different DspB formulations appropriate treatment duration (10 min-1 h). After treatments, gels were removed and washed 3 times with sterile distilled water to remove excess gel and dispersed biofilm. Remaining biofilms in 96-well plates were stained using Crystal violet and unbound crystal violet was removed by washing the wells with sterile water, the biofilm bound crystal violet was eluted using 33% acetic acid, and the absorbance at 620 nm was taken using a microwell plate reader.
Gels containing DspB and selected concentrations of antimicrobials were formulated in 50 mM phosphate buffer or citrate buffer containing 16% PF127. DspB gel and antimicrobial gel were mixed together and incubated at 37° C. for 2 h. Biofilm dispersal was performed at 0 and 2 h using biofilm dispersal assay (Method 5). Blank gel, DspB gel and antimicrobial gels were included as controls.

For `CCCCCCCCCCCCCCCC[n+]1ccccc1.[Cl-]` [Cetylpyridinium chloride], in assay [1], the “Synergy or compatibility with DspB, M: microbiological (biofilm dispersal assay; biofilm inactivation not tested)” value was “M: compatible”. Besides, in assay [2], the “Biofilm dispersal of gel containing DspB and antimicrobial compared with gel containing DspB alone” value is reported as “similar”; the “Synergy or compatibility with DspB, M: microbiological (biofilm dispersal assay; biofilm inactivation not tested)” value is recorded as “M: compatible”.
